Laboratory results from patent publication US20170000132A1, “BENZOXABOROLE FUNGICIDES” (SYNGENTA PARTICIPATIONS AG, priority 2013, published 2017).
Some results were stated once for a whole list of compounds, not compound by compound. At least one structure is not confirmed: it was looked up by name or label, or the drawing left a doubt.

Legend:
Type in all cases: cell-based
[1] = tested on: Botrvotinia fuckeliana (Botrytis cinerea); test: Botryotinia fuckeliana (Botrytis cinerea) / liquid culture (gray mould); conditions: 200 ppm, Vogels broth, 3-4 days after application
[2] = tested on: Glomerella lagenarium (Colletotrichum lagenarium); test: Glomerella lagenarium / liquid culture (anthracnose); conditions: 200 ppm, PDB, 3-4 days after application
Gaeumannomyces graminis = Gaeumannomyces graminis / liquid culture (take-all of cereals); conditions: 200 ppm, PDB, 4-5 days after application
[3] = tested on: Monographella nivalis (Microdochium nivale); test: Monographella nivalis / liquid culture (foot rot cereals); conditions: 200 ppm, PDB, 4-5 days after application
Pythium ultimum = Pythium ultimum / liquid culture (seedling damping off); conditions: 200 ppm, potato dextrose broth, 2-3 days after application
[4] = tested on: Thanatephorus cucumeris (Rhizoctonia solani); test: Thanatephorus cucumeris / liquid culture (foot rot, damping-off); conditions: 200 ppm, PDB, 3-4 days after application
[5] = tested on: Mycosphaerella graminicola (Septoria tritici); test: Mycosphaerella graminicola / liquid culture (Septoria blotch); conditions: 200 ppm, PDB, 4-5 days after application
[6] = tested on: Mycosphaerella arachidis (Cercospora arachidicola); test: Mycosphaerella arachidis / liquid culture (early leaf spot); conditions: 200 ppm, PDB, 4-5 days after application

Measured: disease control (inhibition of growth, photometric)

OB1OCc2cc(Cl)c(C=NNc3ccc(F)cc3F)cc21 (single isomer, unassigned) [Compound 11]
not listed: [5] | [6]
at least 80%: all other assays above

OB1OCc2cc(C=NNc3ccc(Cl)cc3)ccc21 (single isomer, unassigned) [Compound 385]
at least 80%: [1] | [2] | Gaeumannomyces graminis | [3] | [5]

OB1OCc2cc(Cl)c(C=NNc3ccc(Cl)cc3)cc21 (single isomer, unassigned) [Compound 30]
not listed: [6]
at least 80%: all other assays above

OB1OCc2cc(F)cc(C=NNc3cc(F)ccc3F)c21 (single isomer, unassigned) [Compound 248]
not listed: [5] | [6]
at least 80%: all other assays above

OB1OCc2cc(C=NNc3ccc(F)cc3F)ccc21 (single isomer, unassigned) [Compound 369]
not listed: Pythium ultimum
at least 80%: all other assays above

OB1OCc2cc(F)c(C=NOCc3ccccc3F)cc21 (single isomer, unassigned) [Compound 124]
not listed: Pythium ultimum | [4]
at least 80%: all other assays above

CCCCCCON=Cc1cc2c(cc1F)COB2O (single isomer, unassigned) [Compound 126]
not listed: Pythium ultimum | [4]
at least 80%: all other assays above

OB1OCc2cc(C=NOCC=CCl)ccc21 [Compound 393]
not listed: [1]
at least 80%: all other assays above

OB1OCc2cc(Cl)cc(C=NOCc3ccccc3)c21 (single isomer, unassigned) [Compound 190]
not listed: [1]
at least 80%: all other assays above

CON=Cc1cc(C)cc2c1B(O)OC2 [Compound 448]
not listed: Gaeumannomyces graminis | [4]
at least 80%: all other assays above

O=C(O)Cc1ccccc1CON=Cc1ccc2c(c1)COB2O (single isomer, unassigned) [Compound 416]
not listed: [2] | [4]
at least 80%: all other assays above

CCON=Cc1cc(C)cc2c1B(O)OC2 [Compound 450]
at least 80%: [1] | Gaeumannomyces graminis | [3] | Pythium ultimum | [5]

OB1OCc2cc(C=NNc3ccc(F)c(C(F)(F)F)c3)ccc21 (single isomer, unassigned) [Compound 380]
not listed: [1] | Pythium ultimum
at least 80%: all other assays above

OB1OCc2cc(C=NNc3cc(F)ccc3F)ccc21 (single isomer, unassigned) [Compound 375]
at least 80%: [1] | [2] | Gaeumannomyces graminis | [3]

OB1OCc2cc(F)c(C=NNc3ccc(Oc4ccc(Cl)cc4)cc3)cc21 (single isomer, unassigned) [Compound 82]
not listed: [4] | [6]
at least 80%: all other assays above

O=[N+]([O-])c1cccc(NN=Cc2cc(F)cc3c2B(O)OC3)c1 (single isomer, unassigned) [Compound 263]
at least 80%: [1] | [2] | Gaeumannomyces graminis | Pythium ultimum | [4]

C=C(Cl)CON=Cc1cc(Cl)cc2c1B(O)OC2 (single isomer, unassigned) [Compound 197]
not listed: [1]
at least 80%: all other assays above

CC(ON=Cc1ccc2c(c1)COB2O)c1cc(Cl)cc(Cl)c1 (single isomer, unassigned) [Compound 425]
not listed: [1] | Pythium ultimum
at least 80%: all other assays above

OB1OCc2cc(F)cc(C=NOCC=C(Cl)Cl)c21 (single isomer, unassigned) [Compound 280]
not listed: [1] | [6]
at least 80%: all other assays above

CCCON=Cc1cc2c(cc1Cl)COB2O (single isomer, unassigned) [Compound 61]
not listed: [1]
at least 80%: all other assays above

COC(=O)C(Cc1ccccc1)ON=Cc1cc2c(cc1F)COB2O (single isomer, unassigned) [Compound 135]
not listed: [4]
at least 80%: all other assays above
